Reference: PubChem BioAssay AID651768 (National Center for Advancing Translational Sciences (NCATS), 2012)
In all, about 360,000 compounds went through this assay and about 1,700 (0.47%) were called active. The shares of active, inactive and inconclusive entries below differ from those in the screen. The call rests on the fitted dose curve; in most records, active means well fitted inhibition curve with a large enough effect; inconclusive means small, poorly fitted or top-dose-only effect; inactive means no such curve, though single readings can be large or run the other way. Potencies of inconclusive entries are doubtful fits and often do not repeat.

The chains behind the UniProt entries cited, without tags or fusion partners.
UniProt Q14191, whole entry, looked up: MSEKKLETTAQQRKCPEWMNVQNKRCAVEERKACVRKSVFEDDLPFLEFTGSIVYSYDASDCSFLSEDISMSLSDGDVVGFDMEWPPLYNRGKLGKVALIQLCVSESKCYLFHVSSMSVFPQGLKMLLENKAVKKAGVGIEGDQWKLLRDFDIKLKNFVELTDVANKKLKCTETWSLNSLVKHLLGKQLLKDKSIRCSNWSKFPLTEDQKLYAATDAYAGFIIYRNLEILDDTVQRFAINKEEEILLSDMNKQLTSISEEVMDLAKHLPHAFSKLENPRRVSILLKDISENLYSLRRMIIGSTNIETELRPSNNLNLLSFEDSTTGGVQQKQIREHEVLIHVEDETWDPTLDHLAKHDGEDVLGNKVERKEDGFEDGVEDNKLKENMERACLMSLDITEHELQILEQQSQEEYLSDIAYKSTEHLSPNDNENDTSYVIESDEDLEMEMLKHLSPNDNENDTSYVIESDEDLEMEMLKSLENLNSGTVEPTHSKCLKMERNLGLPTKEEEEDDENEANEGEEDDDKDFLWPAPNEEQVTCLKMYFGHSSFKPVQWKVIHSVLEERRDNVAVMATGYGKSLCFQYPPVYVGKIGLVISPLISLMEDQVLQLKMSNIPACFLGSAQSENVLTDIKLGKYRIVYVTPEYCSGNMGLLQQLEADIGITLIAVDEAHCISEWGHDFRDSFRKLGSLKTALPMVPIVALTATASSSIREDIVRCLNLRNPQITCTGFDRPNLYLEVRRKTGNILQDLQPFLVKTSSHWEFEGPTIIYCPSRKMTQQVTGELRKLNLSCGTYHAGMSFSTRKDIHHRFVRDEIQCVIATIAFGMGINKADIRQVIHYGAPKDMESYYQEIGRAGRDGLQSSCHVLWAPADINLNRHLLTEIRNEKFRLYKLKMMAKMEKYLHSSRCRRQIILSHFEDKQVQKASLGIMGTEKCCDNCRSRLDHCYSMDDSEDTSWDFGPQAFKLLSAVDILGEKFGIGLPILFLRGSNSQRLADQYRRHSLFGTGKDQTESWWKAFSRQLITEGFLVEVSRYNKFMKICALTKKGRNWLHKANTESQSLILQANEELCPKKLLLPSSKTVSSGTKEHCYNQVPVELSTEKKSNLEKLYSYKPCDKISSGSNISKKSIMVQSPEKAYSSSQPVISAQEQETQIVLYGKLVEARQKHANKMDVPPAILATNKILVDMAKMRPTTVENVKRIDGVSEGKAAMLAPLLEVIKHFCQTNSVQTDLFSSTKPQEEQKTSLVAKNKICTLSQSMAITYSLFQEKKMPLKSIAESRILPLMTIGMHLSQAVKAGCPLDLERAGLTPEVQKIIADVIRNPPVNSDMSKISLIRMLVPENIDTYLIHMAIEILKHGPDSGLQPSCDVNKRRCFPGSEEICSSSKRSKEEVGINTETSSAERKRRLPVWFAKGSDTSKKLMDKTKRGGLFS

What follows are compounds tested against Bifunctional 3'-5' exonuclease/ATP-dependent helicase WRN (Homo sapiens) (UniProt Q14191) (assay: qHTS for Inhibitors of WRN Helicase). Settings: WRN helicase unwinding, fluorescent forked duplex, kinetic; activity change, negative = inhibition: at 114 µM (top of the series) unless noted.
Method in brief: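 Screening of the MLSMR collection measured strand separation of a quenched forked DNA duplex (100 nM) by 20 nM WRN with 2 mM ATP, all final. Compounds were preincubated with enzyme 15 min at room temperature.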
Further: nearly all actives have a fitted effect of over 55% in size.
On the % scale 0 is the no-effect control and ±100 the full control effect; potency means the concentration at half of the fitted maximal effect.

SMILES	activity change, negative = inhibition	Potency
Brc1ccc(-c2cn3c(n2)SCC3)cc1	inactive: 7.37%	–
Cc1c(Cc2ccccc2)sc(/N=C/c2c(O)ccc3ccccc23)c1C(N)=O	–	inconclusive: 70.8 µM [inhibitor, single point]
O=C(COc1ccc(S(=O)(=O)N2CCOCC2)cc1)NCC1CCCO1 (centres undefined)	–	inconclusive: 89.1 µM [inhibitor, single point]
O=c1c2c(-c3ccco3)csc2nc(SCc2cn3cccnc3n2)n1-c1ccccc1	–	active: 56.2 µM
Cc1c(C(=O)N2CCN(C/C=C/c3ccccc3)CC2)oc2c(F)cccc12	–	inconclusive: 28.2 µM [inhibitor, single point]
CCc1nnc(NC(=O)CSc2nc(-c3ccc(OC)cc3)ns2)s1	inactive: 4.4%	–
CCOc1cc(/C=C2/C(=N)N3N=C(CC)SC3=NC2=O)ccc1OC(=O)c1ccco1	–	inconclusive: 35.5 µM [inhibitor, partial curve]
CC(C)Oc1cccc(C(=O)N/N=C/c2ccoc2)c1	inactive: -4.29%	–
O=C(CCn1nnc2ccccc21)Nc1nnc(COc2ccccc2F)s1	inactive: -1.87%	–
COc1cc(/C(C)=N/NC(=O)C(O)(c2ccccc2)c2ccccc2)ccc1O	–	inconclusive: 70.8 µM [inhibitor, single point]
CC(=O)C1=C(O)C(=O)N(c2ccccn2)C1c1ccccc1[N+](=O)[O-] (centres undefined)	–	active: 70.8 µM
O=C(COc1ccccc1F)NNC(=O)c1cccc(-n2cccc2)c1	inactive: -8.59%	–
COc1cccc(Nc2nc(N)nc(-c3oc4ccccc4c3C)n2)c1	–	inconclusive: 56.2 µM [inhibitor, single point]
OCCNCc1ccc(-c2ccccc2)cc1	–	inconclusive: 39.8 µM [inhibitor, single point]
Cn1cnnc1SCC(=O)Nc1ncc([N+](=O)[O-])s1	–	active: 39.8 µM
COc1ccc(OCC(=O)N/N=C/c2cccn2-c2cccc(C(=O)O)c2)cc1	–	inconclusive: 56.2 µM [inhibitor, partial curve]
Cc1oc2nc(SCC(=O)N3CCCCC3)nc(N)c2c1C	–	inconclusive: 11.2 µM [inhibitor, partial curve]
O=c1c(-c2ccc([N+](=O)[O-])cc2)coc2c(O)c(O)ccc12	–	active: 22.4 µM
COc1ccc(N=c2ssnc2Cl)cc1	–	inconclusive: 70.8 µM [inhibitor, single point]
CC(=O)Nc1ccc(Nc2nc(-c3sc(NC(C)=O)nc3C)cs2)cc1	inactive: -26.2%	–
O=C(Nc1ccc(O)cc1C(=O)O)c1ccc2c(c1)C(=O)N(Cc1ccco1)C2=O	–	inconclusive: 21.2 µM [inhibitor, partial curve]
C=C(NC(=O)C(=C)NC(=O)c1csc(C2=NC3c4csc(n4)C4NC(=O)c5csc(n5)C(C(C)(O)C(C)O)NC(=O)C5CSC(=N5)/C(=C/C)NC(=O)C(C(C)O)NC(=O)c5csc(n5)C3(CC2)NC(=O)C(C)NC(=O)C(=C)NC(=O)C(=C)NC(=O)C(C(C)C)NC2C=Cc3c(C(C)O)cc(nc3C2O)C(=O)OC4C)n1)C(N)=O (centres undefined)	–	inconclusive: 25.1 µM [inhibitor, single point]

SMILES	activity change, negative = inhibition	Potency
Cc1ccc(C2=NOC(=O)/C2=C\C=C\c2ccccc2)cc1	–	active: 35.5 µM
O=C(OCc1nc2ccccc2s1)c1ccc([N+](=O)[O-])o1	–	inconclusive: 14.1 µM [inhibitor, partial curve]
O=S(=O)(c1cc(O)ccc1O)c1cccc2c(S(=O)(=O)c3cc(O)ccc3O)cccc12	–	active: 31.6 µM
Cc1ccc(S(=O)(=O)N(CC(=O)NCc2ccncc2)Cc2ccc(F)cc2)cc1	–	inconclusive: 89.1 µM [inhibitor, single point]
COc1c(Cl)cnn(-c2ccccc2)c1=O	–	inconclusive: 25.1 µM [inhibitor, single point]
Cc1ccc(S(=O)(=O)c2c(N)n(CCCN(C)C)c3nc4ccccc4nc23)cc1	inactive: -3.76%	–
COc1ccc2noc3c2c1C(=O)c1ccccc1-3	–	inconclusive: 9.47 µM [inhibitor, partial curve]
O=C(N/N=C1\CCSC1)c1cc(Cl)ccc1O	–	inconclusive: 22.4 µM [inhibitor, single point]
COC(=O)CN(c1cc([N+](=O)[O-])ccc1OC)S(C)(=O)=O	–	inconclusive: 39.8 µM [inhibitor, single point]
Fc1ccc(N2C(=S)SC(=Nc3ccccc3)C2=Nc2ccccc2)cc1	inactive: -7.14%	–
Cc1cccc(NC(=S)N/N=C/c2ccc3c(c2)OCO3)c1	–	inconclusive: 39.8 µM [inhibitor, single point]
N=C1/C(=C/c2ccc(Br)o2)C(=O)N=C2SC(CC(=O)N3CCCC3)=NN12	–	active: 50.1 µM
Cc1cc(C)n2ncc(C(=O)Nc3ccc(Cl)c(Cl)c3)c2n1	–	inconclusive: 39.8 µM [inhibitor, single point]
COc1ccc(/C=N/NC(=O)c2cc3cc(OC)c(OC)cc3[nH]2)cc1	–	inconclusive: 56.2 µM [inhibitor, partial curve]
Oc1ccccc1/C=N/NC(=S)NC1CC2CCC1C2 (centres undefined)	inactive: -15.7%	–
CCCc1nn2c(N)c(/C=C3\C=Nc4ccccc43)c(=O)nc2s1	–	inconclusive: 22.4 µM [inhibitor, single point]
COc1cccc(=O)c2c(C)n(-c3ccc(C(=O)O)cc3)c(C)c12	–	inconclusive: 50.1 µM [inhibitor, partial curve]
COCCOC(=O)c1sc(=S)n(CCOC)c1N	–	inconclusive: 44.7 µM [inhibitor, partial curve]
O=C(O)c1ccc(-c2ccc(/C=N/Nc3ccc([N+](=O)[O-])cc3)o2)cc1	–	inconclusive: 56.2 µM [inhibitor, partial curve]
O=C(COc1ccccc1C(=O)N/N=C\c1ccc(O)c(O)c1)N/N=C/c1ccc(O)c(O)c1	–	active: 0.267 µM
CN(C(=O)COC(=O)c1cc(-c2ccco2)nc2ccccc12)C1CCS(=O)(=O)C1 (centres undefined)	–	active: 31.6 µM
O=C(CSc1nnc(COc2ccccc2Cl)o1)NC(=O)NCc1ccco1	inactive: -7.68% [at 11.6 µM]	–

An excerpt of these results, in CSV form:
SMILES,"activity change, negative = inhibition",Potency
CCc1nnc(NC(=O)CSc2nc(-c3ccc(OC)cc3)ns2)s1,inactive: 4.4%,–
CC(C)Oc1cccc(C(=O)N/N=C/c2ccoc2)c1,inactive: -4.29%,–
Cc1ccc(C2=NOC(=O)/C2=C\C=C\c2ccccc2)cc1,–,active: 35.5 µM
O=C(COc1ccccc1C(=O)N/N=C\c1ccc(O)c(O)c1)N/N=C/c1ccc(O)c(O)c1,–,active: 0.267 µM
